Data from EP2467164A2 (dated 2012).
Results are given in words; binding and its absence hold for the method and conditions named. Some binding calls cover weakened binding; strength is not graded here.

The chains behind the UniProt entries cited, without tags or fusion partners. Where a name states a change or a piece, a line headed by the entry shows the natural chain unless it says otherwise.
UniProt P21860: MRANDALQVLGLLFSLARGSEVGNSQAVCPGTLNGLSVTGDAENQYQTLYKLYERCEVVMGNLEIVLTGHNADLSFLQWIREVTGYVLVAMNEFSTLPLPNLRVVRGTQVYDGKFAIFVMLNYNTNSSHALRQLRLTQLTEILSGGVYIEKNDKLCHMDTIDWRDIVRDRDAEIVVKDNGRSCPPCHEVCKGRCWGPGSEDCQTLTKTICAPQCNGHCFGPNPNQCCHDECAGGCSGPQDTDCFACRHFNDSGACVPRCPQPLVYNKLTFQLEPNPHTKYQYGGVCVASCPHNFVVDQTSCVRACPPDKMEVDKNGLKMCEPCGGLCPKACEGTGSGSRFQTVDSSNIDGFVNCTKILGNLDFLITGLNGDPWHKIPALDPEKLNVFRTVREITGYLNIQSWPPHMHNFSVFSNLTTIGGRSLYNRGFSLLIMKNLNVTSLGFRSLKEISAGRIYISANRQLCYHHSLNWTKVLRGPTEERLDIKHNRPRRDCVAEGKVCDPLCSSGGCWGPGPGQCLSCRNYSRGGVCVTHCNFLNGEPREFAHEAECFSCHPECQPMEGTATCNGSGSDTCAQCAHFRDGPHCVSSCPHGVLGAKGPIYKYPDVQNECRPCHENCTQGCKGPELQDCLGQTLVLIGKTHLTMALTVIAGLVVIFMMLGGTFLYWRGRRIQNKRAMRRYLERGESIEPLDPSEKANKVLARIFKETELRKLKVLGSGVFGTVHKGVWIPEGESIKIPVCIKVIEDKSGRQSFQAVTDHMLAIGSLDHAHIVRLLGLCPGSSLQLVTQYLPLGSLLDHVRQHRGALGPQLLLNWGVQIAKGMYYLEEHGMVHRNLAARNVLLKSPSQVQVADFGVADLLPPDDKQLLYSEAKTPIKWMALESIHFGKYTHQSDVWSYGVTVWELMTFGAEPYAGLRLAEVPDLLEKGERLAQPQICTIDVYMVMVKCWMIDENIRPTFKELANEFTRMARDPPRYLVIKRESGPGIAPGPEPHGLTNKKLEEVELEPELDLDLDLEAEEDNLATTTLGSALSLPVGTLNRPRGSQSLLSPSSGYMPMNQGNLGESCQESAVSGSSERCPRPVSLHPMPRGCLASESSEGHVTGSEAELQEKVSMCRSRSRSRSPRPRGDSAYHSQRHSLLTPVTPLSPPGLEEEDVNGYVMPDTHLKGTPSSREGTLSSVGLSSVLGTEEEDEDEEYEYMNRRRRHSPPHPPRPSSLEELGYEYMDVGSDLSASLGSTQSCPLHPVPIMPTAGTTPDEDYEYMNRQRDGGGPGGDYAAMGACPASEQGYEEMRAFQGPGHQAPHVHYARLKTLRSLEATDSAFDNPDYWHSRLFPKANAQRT

B1: Ab #6 (antibody, V domains shown)
VH: EVQLLESGGGLVQPGGSLRLSCAASGFTFSHYVMAWVRQAPGKGLEWVSSISSSGGWTLYADSVKGRFTISRDNSKNTLYLQMNSLRAEDTAVYYCTRGLKMATIFDYWGQGTLVTVSS
VL: QSALTQPASVSGSPGQSITISCTGTSSDVGSYNVVSWYQQHPGKAPKLIIYEVSQRPSGVSNRFSGSKSGNTASLTISGLQTEDEADYYCCSYAGSSIFVIFGGGTKVTVL
notes: also called MM-121; anti-ErbB3 antibody Ab #6
B2: single chain (scFv) version of Ab #6 (scFv)
scFv: EVQLLESGGGLVQPGGSLRLSCAASGFTFSHYVMAWVRQAPGKGLEWVSSISSSGGWTLYADSVKGRFTISRDNSKNTLYLQMNSLRAEDTAVYYCTRGLKMATIFDYWGQGTLVTVSSASTGGGGSGGGGSGGGGSQSALTQPASVSGSPGQSITISCTGTSSDVGSYNVVSWYQQHPGKAPKLIIYEVSQRPSGVSNRFSGSKSGNTASLTISGLQTEDEADYYCCSYAGSSIFVIFGGGTKVTVL

Key:
[1] = target: ErbB3 ectodomain Domain I expressed on the surface of yeast cells (human) (UniProt P21860); assay: FACS on yeast displaying ErbB3 Domain I
[2] = target: Protein A (UniProt P38507); assay: paratope mapping screen (Figure 36)

| Binder | binding [1] | binding [2] |
| --- | --- | --- |
| B1 | binds |  |
| B2 |  | binds |
